From PubChem BioAssay AID540276 (National Center for Advancing Translational Sciences (NCATS), 2011)
Out of some 300,000 compounds screened, about 5,400 (1.8%) were called active. The shares of active, inactive and inconclusive entries below differ from those in the screen. Calls come from the whole dose curve; tested in HEK293 cells. Potencies beside an inconclusive call are fits to weak or partial responses and may not hold up.

test: qHTS for inhibitors of binding or entry into cells for Marburg Virus; details: Marburg virus pseudotyped entry inhibition, cell reporter; activity change, negative = inhibition: at 37.8 µM (top of the series) unless noted
% is set by controls: 0 for no effect and ±100 for the full control effect; potency is the fitted concentration of half-maximal effect.

Structure (SMILES)	Potency	activity change, negative = inhibition
CN(CC(=O)Nc1cccc(F)c1)C(=O)/C=C/c1ccc(S(=O)(=O)N2CCCCCC2)cc1	inconclusive: 2.82 µM [inhibitor, partial curve, poor fit]	–
CCCCNc1oc(-c2ccc(OC)cc2)nc1S(=O)(=O)c1ccccc1	–	inactive: -12%
CCCCOc1ccc(CSc2nncn2N)cc1	inconclusive: 5.01 µM [activator, full curve, poor fit]	–
CCOc1ccc(C(C)C)cc1S(=O)(=O)n1nc(C)cc1C	inconclusive: 0.282 µM [activator, partial curve, poor fit]	–
O=C(C1CC1)N1CCc2cc(Br)cc(S(=O)(=O)Nc3ccc(F)c(F)c3)c21	inconclusive: 35.5 µM [inhibitor, single point]	–
Cc1ccc2ncnc(NCCC(=O)O)c2c1	–	inactive: -10.3%
CCCOc1ccc(C(=O)N2CCC(c3nc4ccccc4s3)CC2)cc1	inconclusive: 6.31 µM [activator, single point]	–
O=C(/C=C/c1ccccc1)NCCc1ccc2c(c1)OCCO2	–	inactive: -21.6%
CCOc1ccc(N(CC(=O)NCc2ccccc2OC)S(C)(=O)=O)cc1	–	inactive: 28.2%
O=C(OCc1nc2ccc(Cl)cc2n1CCO)c1ccccc1C(=O)c1ccccc1	inconclusive: 22.4 µM [inhibitor, single point]	–
O=C(Nc1ccc(N2CCN(C(=O)c3ccccc3)CC2)cc1)c1cccs1	–	inactive: -2.03% [at 46.1 µM]
COc1ccc(CNC(=O)N2CCc3ccccc3C2)cc1Cl	–	inactive: -16.8% [at 46.1 µM]
COc1ccc(NC(=O)COC(=O)C(NC(=O)c2ccc(C)cc2)C(C)C)cn1 (stereo unspecified)	–	inactive: -2.36%
CN1C(=O)C(CC(=O)Nc2ccc(F)cc2)N(NC(=O)c2cccc(F)c2)C1=S (stereo unspecified)	inconclusive: 5.62 µM [inhibitor, single point]	–
CCOC(=O)COc1ccc(C)cc1C(=O)c1ccn2nc(-c3ccc(Cl)cc3)cc2n1	–	inconclusive: 4.75% [activator] [at 46.1 µM]
Cc1c(-n2c(SCC(=O)NC(C)C(C)C)nc3ccccc3c2=O)c(=O)n(-c2ccccc2)n1C (stereo unspecified)	inconclusive: 5.01 µM [inhibitor, partial curve, poor fit]	–
COc1ccc(C(C(=O)NC(C)(C)C)N(C(=O)CNC(=O)c2cccs2)c2ccc(C(C)C)cc2)cc1OC (stereo unspecified)	inconclusive: 29.1 µM [inhibitor, single point]	–
Oc1ccccc1C1=Nc2ccccc2N=C(c2cccs2)C1	inconclusive: 25.9 µM [inhibitor, partial curve, poor fit]	–
O=C(N/N=C1\CCCCc2ccccc21)c1ccccn1	inconclusive: 0.891 µM [activator, full curve, poor fit]	–
CSc1cccc(NC(=O)C2CCCN(S(=O)(=O)c3cccs3)C2)c1 (stereo unspecified)	inconclusive: 20 µM [inhibitor, partial curve, poor fit]	–
CCn1c(C(=O)Nc2ccc(C)cc2C)cc2sc(Cl)cc21	inconclusive: 2.82 µM [activator, single point]	–
O=C(CNc1ccc(Br)cc1)Nc1ccc(S(=O)(=O)N2CCCC2)cc1	inconclusive: 35.5 µM [inhibitor, single point]	–
CCN1C(=O)/C(=C/N2CCc3ccccc3C2)SC1=S	–	inactive: 28% [at 46.1 µM]
CCOC(=O)C(=Cc1ccccc1OC)C(=O)OCC	inconclusive: 14.1 µM [inhibitor, partial curve, poor fit]	–

Structure (SMILES)	Potency	activity change, negative = inhibition
CCc1ccccc1NC(=O)CN1C(=O)c2ccccc2S1(=O)=O	–	inactive: 1.14% [at 46.1 µM]
O=C(CCC(=O)N1CCCC1)Nc1ccc([N+](=O)[O-])cc1	inconclusive: 35.5 µM [inhibitor, single point]	–
Nc1cc(N)cc(-c2nc3ccccc3[nH]2)c1	–	inactive: 4.62%
O=c1[nH]cnc2sc3c(c12)CCC3	–	inactive: -0.657% [at 46.1 µM]
CCN(CC)S(=O)(=O)c1cc(NC(=O)Cc2n[nH]c(=O)c3ccccc23)ccc1C	inconclusive: 3.55 µM [inhibitor, single point]	–
Oc1ccc(/C=N/N(Cc2ccccc2)c2ccccc2)cc1	inconclusive: 12.6 µM [inhibitor, single point]	–
CC(=O)OC1COC(n2ccc3cc([N+](=O)[O-])ccc32)C(OC(C)=O)C1OC(C)=O (stereo unspecified)	–	inactive: -6.06%
CCOC(=O)CSc1nc(C(C)C)nc2ccccc12	–	inactive: 12.1%
CCOc1ccc(/C=N/NC(=O)Cc2ccccc2)cc1CN1CC2CC(C1)c1cccc(=O)n1C2 (stereo unspecified)	–	inactive: -6.37%
C[C@]12CCC3C(CC[C@H]4CC(O)CC[C@]34C)C1CC/C2=N/NC(=O)c1ccncc1 (stereo partly specified)	inconclusive: 3.55 µM [activator, single point]	–
Cn1c(N2CCCC2)nc2c1c(=O)[nH]c(=O)n2C	–	inactive: -3.69% [at 46.1 µM]
Cc1cc(C(=O)OCC(=O)N2CC(C)OC(C)C2)c2ccccc2n1 (stereo unspecified)	inconclusive: 4.47 µM [activator, full curve, poor fit]	–
CC(=O)Nc1cc[n+](C(C)C(=O)c2ccc(Br)cc2)cc1 (stereo unspecified)	inconclusive: 0.631 µM [inhibitor, full curve, poor fit]	–
COc1cc(Br)c(C(=O)c2nccc3cc(OC)c(OC)cc23)cc1OC	inconclusive: 3.16 µM [inhibitor, single point]	–
COc1ccc(C2CN=NC23CCCc2ccccc2C3=O)cc1 (stereo unspecified)	–	inactive: -16.4%
O=C(O)CCCCCn1c(O)c(C=C2N=c3ccccc3=N2)sc1=S	inconclusive: 0.794 µM [activator, partial curve, poor fit]	–
COc1cc(/C=C/C(=O)OCC(=O)NC(=O)NC23CC4CC(CC(C4)C2)C3)ccc1OCC#N	inconclusive: 11.2 µM [inhibitor, partial curve, poor fit]	–
CC(C(=O)Nc1cc([N+](=O)[O-])ccc1Cl)N1CCN(c2ccccc2O)CC1 (stereo unspecified)	inconclusive: 20 µM [inhibitor, partial curve, poor fit]	–
O=C(COc1ccccc1-c1ccccc1)N/N=C/c1ccc2ccccc2c1	inconclusive: 1.12 µM [inhibitor, full curve, poor fit]	–
COC(=O)c1cc2c(cn1)[nH]c1ccccc12	inconclusive: 12.6 µM [activator, partial curve]	–
Cc1ccccc1CSc1nncn1N	–	inactive: 11.7%
CCN(CC)C(=O)CN(c1cc2c(cc1OC)oc1ccccc12)S(=O)(=O)c1ccccc1	active: 10 µM	–
COc1cccc(OCCNC(=O)c2cc([N+](=O)[O-])cc([N+](=O)[O-])c2)c1	–	inactive: -19.3% [at 46.1 µM]
CC(NC(=O)Nc1ccc(F)cc1)C(c1cccs1)N1CCCC1 (stereo unspecified)	–	inactive: 4.74%

Reprinted at random: 4 entries already listed.
Structure (SMILES)	Potency	activity change, negative = inhibition
CCOc1ccc(/C=N/NC(=O)Cc2ccccc2)cc1CN1CC2CC(C1)c1cccc(=O)n1C2 (stereo unspecified)	–	inactive: -6.37%
COc1cccc(OCCNC(=O)c2cc([N+](=O)[O-])cc([N+](=O)[O-])c2)c1	–	inactive: -19.3% [at 46.1 µM]
O=C(COc1ccccc1-c1ccccc1)N/N=C/c1ccc2ccccc2c1	inconclusive: 1.12 µM [inhibitor, full curve, poor fit]	–
C[C@]12CCC3C(CC[C@H]4CC(O)CC[C@]34C)C1CC/C2=N/NC(=O)c1ccncc1 (stereo partly specified)	inconclusive: 3.55 µM [activator, single point]	–

(list continues)

Structure (SMILES)	Potency	activity change, negative = inhibition
COc1ccc(Cc2nc3ccc(C(=O)NCc4cc(C)no4)cc3o2)cc1OC	–	inactive: -17.9%
N#CC1=C(N)SC(N)=C(C#N)C1c1ccc(C(F)(F)F)cc1	–	inactive: 7.47%
CC1(c2ccccc2)NC(=O)N(CC(=O)N2CCN(S(=O)(=O)c3cccc(C(F)(F)F)c3)CC2)C1=O (stereo unspecified)	–	inactive: -2.27%
Cc1ccccc1N1CC(c2nnc(NC(=O)c3ccco3)s2)CC1=O (stereo unspecified)	–	inactive: -1% [at 46.1 µM]
CCOC(=O)c1c(C)[nH]c(C(=O)C(Cc2ccccc2)N(C)C)c1C (stereo unspecified)	inconclusive: 17.8 µM [inhibitor, single point]	–
O=C(NCCSCc1ccccc1)c1ccc(Cl)c(S(=O)(=O)N2CCOCC2)c1	inconclusive: 17.8 µM [inhibitor, single point]	–
Cc1cccc(N2CCN(Cc3cc(=O)oc4cc(C)ccc34)CC2C)c1 (stereo unspecified)	–	inactive: 10.2% [at 46.1 µM]
CC(C)c1ccc(CNc2nc(-c3ccco3)nn2S(=O)(=O)c2ccc(F)cc2)cc1	–	inactive: 5.35% [at 46.1 µM]
C[C@H]1CC2[C@@H]3CCC4=CC(=O)C=C[C@]4(C)[C@@]3(Cl)[C@@H](O)C[C@]2(C)[C@@]1(O)C(=O)CO (stereo partly specified)	–	inactive: 16.2%
CC(C)(C)c1cc(C(=O)NCc2cc(F)cc3c2OCOC3)n(Cc2ccccc2)n1	inconclusive: 7.08 µM [activator, partial curve, poor fit]	–
CN(C)CC1CCCCC1OC(=O)c1ccc(Cl)cc1 (stereo unspecified)	inconclusive: 3.16 µM [activator, partial curve, poor fit]	–
C=C(C)C1Cc2c(C)nn(-c3cccc4ccccc34)c2C1 (stereo unspecified)	inconclusive: 35.5 µM [inhibitor, single point]	–
O=C(N/N=C/c1ccccn1)c1cc(-c2ccc(Cl)s2)[nH]n1	–	inactive: -17.1% [at 46.1 µM]
Cc1cccc(OCCn2c(=O)oc3ccc(C)cc32)c1	–	inactive: -13% [at 46.1 µM]
COc1ccc(NC(=O)CC2C(=O)N(c3cccc(OC)c3)C(=O)N2CCC2=CCCCC2)cc1 (stereo unspecified)	inconclusive: 25.1 µM [inhibitor, single point]	–
CC(C)c1ccc(OCC(O)CN2CCCC2)cc1 (stereo unspecified)	inconclusive: 3.16 µM [activator, single point]	–
NC(=O)N/N=C/c1c(O)ccc2oc3c(c12)CCCC3	inconclusive: 0.562 µM [activator, full curve, poor fit]	–
CCN(CC)CCNc1ncnc2c1sc1nc(N3CCCC3)c3c(c12)CC(C)(C)OC3	inconclusive: 35.5 µM [inhibitor, single point]	–
COc1cc2ccccc2cc1C(=O)N(CCN(C)C)c1nc2c(C)cccc2s1	inconclusive: 17.8 µM [inhibitor, single point]	–
CCC(C)(C)C1CCc2c(sc(N)c2C(N)=O)C1 (stereo unspecified)	inconclusive: 3.98 µM [inhibitor, full curve, poor fit]	–
Cc1nc(-c2ccc(C(=O)Nc3ccccc3F)cc2)cs1	inconclusive: 3.55 µM [inhibitor, full curve, poor fit]	–
O=C(Nc1ccc(F)cc1)/C(Cl)=C/c1ccccc1	inconclusive: 0.316 µM [activator, full curve, poor fit]	–
CCCCN(C(=O)c1ccc(N2CCCC2=O)cc1)c1c(N)n(Cc2ccccc2)c(=O)[nH]c1=O	–	inactive: 1.47%
